Measured values from PMC9529944, “Molecular asymmetry of a photosynthetic supercomplex from green sulfur bacteria” (Nature Communications, 2022).
No constants are given. Whether binding was seen depends on the method and setting. Some results given as binding are weak or reduced against the parent protein; the word gives no strength.

Target: T1, Fenna-Matthews-Olson (FMO) complex (Chlorobaculum tepidum (endogenous in C. tepidum TLS, DSM 12025)) (UniProt Q46393)
T1 sequence: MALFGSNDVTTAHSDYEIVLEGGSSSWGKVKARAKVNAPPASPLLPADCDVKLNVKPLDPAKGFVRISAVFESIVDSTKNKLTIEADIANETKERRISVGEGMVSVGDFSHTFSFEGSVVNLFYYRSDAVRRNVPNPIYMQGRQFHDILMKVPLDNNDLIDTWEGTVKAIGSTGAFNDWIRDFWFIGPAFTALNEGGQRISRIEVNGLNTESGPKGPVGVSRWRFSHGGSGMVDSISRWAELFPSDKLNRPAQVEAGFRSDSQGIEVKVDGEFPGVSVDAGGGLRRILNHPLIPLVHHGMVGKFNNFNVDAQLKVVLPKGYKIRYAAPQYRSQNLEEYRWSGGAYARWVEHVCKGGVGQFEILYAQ
Assay: cryo-EM structure; single-particle cryo-EM of the native supercomplex extracted with DDM from C. tepidum membranes; RC-FMO2 at 3.08 Å (local 2.92 and 3.06 Å), RC-FMO1 at 3.49 Å; 20 mM Tris-Cl pH 8.0, 200 mM NaCl, 0.17 mM DDM; both purified

B1: PscB (protein, UniProt Q8KAY1 1-231)
chain: MAEPVENKNQAPAPGAKVPPKGAPAAPKAGAPAAPKGPVAPKAGAPAAKTGASAAKQAGKPRLASLGVTLGRSGVRQESALPYVKPKAVPPPKPAAPAAKGAPAPKGAPAAPAAKAAPGAPVAKAAPKAKKHYFIIENLCVGCGLCLDKCPPKVNAIGYKFYGDVQEGGFRCYIDQAACISCSACFSGDECPSGALIEVLPDGEVLDFSYTPPERLDFDLRFLHRFHREAR
In the case of B1, the binding is reported as “binds”.
